The labels stand for the following.
T1: tail tube protein (TTP) from phage SPR, His-tagged (phage SPR)
T1 sequence: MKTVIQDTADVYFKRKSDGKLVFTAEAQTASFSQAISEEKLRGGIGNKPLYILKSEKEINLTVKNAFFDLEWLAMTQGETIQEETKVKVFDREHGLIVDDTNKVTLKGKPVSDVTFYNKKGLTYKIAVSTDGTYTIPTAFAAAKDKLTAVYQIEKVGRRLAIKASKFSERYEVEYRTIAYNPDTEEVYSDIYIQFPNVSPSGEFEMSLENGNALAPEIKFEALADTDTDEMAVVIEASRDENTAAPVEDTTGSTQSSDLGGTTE

B1: DSR anti-defense 1 (DSAD1), His-tagged (natural protein)
chain: MIEIFKDTGATHDLVYHSKINTFVWDVEFDIVLSDSKELNKCYFVKCFNPYRINGKCDFAVSSIDIFSEGKRLLIENEFNFKITKAVHVATSKDVTEIVLHLSERISSPFPIVKEVVYLD
notes: phage-encoded DSAD1, WP_004399562; aa 1-9 not built in the cryo-EM model; Cloned into a pET-derived vector with an N-terminal His tag; also called anti-DSR2 protein; His-tagged DSAD1; source: E. coli Rosetta (DE3), purified (Ni-NTA, anion exchange, gel filtration); not shown: His, N-terminal, kept
B2: DSR2 SIR2 domain-only protein (aa 1-303) (domain or fragment, UniProt P0DXN8 1-303)
chain: MVKVDLESKRYGEKLKEVFLMLDNNVVECIKEITESSRNGKLVFFVGAGVSTLSDYPQWWRLVDKYHEELYGSPKKGNYSSDEYLRIPQIFYNVKGEMAFDGILKDFFQVDKPTNPIHDKILAMNPAHVITTNYDNLIDTACWKRGKYFSVISAEEDVANATSSRYLLKVHGDFRKGFKGENVVLKEDDYLNYDQNYPLISNLMKTIIATHTIVFIGYGLGDYNINMLLNWVRKLQKDSFHKPFFIRTDPSPIENETLIYYENKGLRIIDAASLIDSNEYDYLERYSAVMDLLIESQENKFIT

The target of test [1] is B1. Description: AUC; sedimentation velocity, samples at 1 mg/mL in gel-filtration buffer (25 mM Tris-HCl pH 7.5, 150 mM NaCl, 2 mM DTT), SEDFIT and SEDPHAT; both purified.
Test [2] addresses T1, tail tube protein (TTP) from phage SPR, His-tagged (phage SPR). Description: pull-down; N-terminal His-tagged TTP or DSAD1 on Ni-NTA agarose beads, excess untagged DSR2 variants added, 1 h at 4 °C, 25 mM Tris-HCl pH 7.5, 300 mM NaCl, washes with 10 mM imidazole, SDS-PAGE with Coomassie staining; both purified.

These are yes or no findings as the source states them, for the method shown. Tags and fused reporters may be left off the sequences shown.

On to B1, for which, in test [1], the binding entry is given as “no binding (tested: 1 mg/mL)”.
Turning to B2, in test [2], the binding entry is listed as “no binding”.

The values are drawn from PMC10973363, “Insights into the modulation of bacterial NADase activity by phage proteins” (Nature Communications, 2024).
